Protein sequences, listed by entry. Tags and fused reporters are not part of them. Lines headed by an entry give the natural chain unless they say otherwise; changes in a name come on top.
UniProt Q01638: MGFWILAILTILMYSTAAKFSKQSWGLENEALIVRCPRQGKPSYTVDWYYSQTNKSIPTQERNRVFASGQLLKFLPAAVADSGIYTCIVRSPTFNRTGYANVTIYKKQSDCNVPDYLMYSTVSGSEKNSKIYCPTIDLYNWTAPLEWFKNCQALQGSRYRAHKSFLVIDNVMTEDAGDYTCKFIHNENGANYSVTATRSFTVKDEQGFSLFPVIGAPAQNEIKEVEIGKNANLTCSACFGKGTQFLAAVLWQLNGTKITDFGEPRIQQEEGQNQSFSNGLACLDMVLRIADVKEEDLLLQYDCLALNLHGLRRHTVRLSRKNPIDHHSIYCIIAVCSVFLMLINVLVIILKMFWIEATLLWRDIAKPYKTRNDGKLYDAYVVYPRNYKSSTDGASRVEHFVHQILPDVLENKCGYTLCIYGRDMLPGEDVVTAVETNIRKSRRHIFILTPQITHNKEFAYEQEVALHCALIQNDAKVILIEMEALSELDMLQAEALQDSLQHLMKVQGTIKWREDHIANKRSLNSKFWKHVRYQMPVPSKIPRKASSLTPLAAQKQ

The whole screen tested about 78,000 compounds, of which about 1,800 (2.3%) were called active. The shares of active, inactive and inconclusive entries below differ from those in the screen. Cut-off read from the data, not from the text of the source: active = inhibition above about 30%; inconclusive = mostly about 10% to 28%; inactive = weaker than that.
The compounds below were run against Interleukin-1 receptor-like 1 (Homo sapiens) (UniProt Q01638) (assay: blocks human ST2 binding to IL-33, primary screen, biochemical, AlphaLISA (AID 1259354)). Conditions: AlphaLISA ST2-Fc/biotin-IL-33 interaction, 1 h; at 17 µM, stronger effect = higher value.
With O=C(C1CC1)N1CCc2cc(S(=O)(=O)N3CCN(c4ccccc4Cl)CC3)ccc21 the inhibition was inconclusive: 11%. In the case of NC(=O)CSC1=Nc2ccccc2C2=NC(CCC(=O)NCc3cccs3)C(=O)N12 (stereo unspecified), the inhibition is reported as “inactive”. In the case of Cc1ccccc1-c1nc(CN2CCCC(C(=O)NCC3CCCO3)C2)c(C)o1 (stereo unspecified), the inhibition is reported as inconclusive: 13%. With COC(=O)CC[C@H]1CNC(=O)[C@@H]2[C@@H](CCN2Cc2ccc(C(F)(F)F)cc2)N1C the inhibition was inconclusive: 10%. For C=CCCC(=O)N1CCc2c(cc(-c3ccccc3Cl)c(=O)n2Cc2ccncc2)C1, the inhibition was inconclusive: 12%. In the case of CCOc1c(Cl)cnn(-c2ccccc2)c1=O, the inhibition is reported as “inactive”. With CCCOc1ccc(/C=C2\N=C(c3ccccc3F)OC2=O)cc1OC the inhibition was inconclusive: 13%. For CC(C)c1cc(C(=O)N(CC2CCN(Cc3ccccc3F)CC2)CC2CCCO2)on1 (stereo unspecified), the inhibition was “inactive”. With COc1ccccc1-c1nnc(Nc2nc3ccc(F)cc3s2)o1 the inhibition was “inactive”. For CC(=O)Nc1ccc(-c2cnc(-c3ccc(NC(C)=O)cc3)nc2)cc1, the inhibition was inconclusive: 15%. In the case of CC(=C\C(=O)O)/C=C(\C)CC(C)CCCCC(O)C(CO)C(=O)O (stereo unspecified), the inhibition is reported as inconclusive: 21%. With CCS(=O)(=O)c1ncc(CN2CCN(c3ccccc3)CC2C)n1CCOC (stereo unspecified) the inhibition was inconclusive: 10%. For O=C1NC(=Nc2ccccc2)SC1(CO)CO, the inhibition was “inactive”. For COc1ccc(NC(=O)CCS(=O)(=O)c2cccc3nsnc23)cc1, the inhibition was “inactive”. For COc1ccc(N2CCN(C(=O)CNS(=O)(=O)c3cccs3)CC2)cc1, the inhibition was “inactive”. With CC1CCCC(C)N1C(=O)c1cccc2c1-c1ccccc1C2=O (stereo unspecified) the inhibition was “inactive”. With Cn1cc(CC(=O)NCc2ccco2)c2ccccc21 the inhibition was “inactive”. COc1ccc(-c2nnn(CC(=O)Nc3ccc(OC(F)(F)F)cc3)n2)cc1 was tested, and the inhibition was inconclusive: 16%. In the case of CN(C(=O)CCC(F)(F)F)C1CCCN(CCCc2ccccc2)C1 (stereo unspecified), the inhibition is reported as “inactive”. With O=C1C(Nc2ccc(O)cc2)=CC(=NS(=O)(=O)c2ccc(Cl)cc2)c2ccccc21 the inhibition was active: 87%. With O=C1CCCC2=C1C(c1ccco1)Nc1ccccc1N2 (stereo unspecified) the inhibition was inconclusive: 18%. For CCc1[nH]c2ccccc2c1C, the inhibition was inconclusive: 16%. For COc1cc(C(c2ccc(C)o2)c2ccc(C)o2)c([N+](=O)[O-])cc1OC, the inhibition was active: 36%. With O=C(CN1C(=O)C2CCCCN2C(=O)c2ccccc21)NC1CCCCCC1 (stereo unspecified) the inhibition was inconclusive: 13%. With COc1cc2c(cc1OC)C(c1ccc([N+](=O)[O-])cc1)NCC2 (stereo unspecified) the inhibition was inconclusive: 12%. CCN1CCN(Cc2cc(C(=O)N(C)CCc3ccccc3)no2)CC1 was tested, and the inhibition was inconclusive: 11%. For COc1ccc(N=Cc2c(O)n(-c3ccccc3C)c(=O)c3ccccc23)cc1, the inhibition was active: 48%. COc1ccc(/C=C/c2nc(=O)cc(-c3ccccc3)o2)cc1 was tested, and the inhibition was inconclusive: 27%. In the case of CCOc1ccc(-n2c(C)c(C(=O)O)c3cc(OC)c4ccccc4c32)cc1, the inhibition is reported as “inactive”. With CCn1cc(Cn2ccnc2-c2ccc3cccc(OC)c3n2)cn1 the inhibition was inconclusive: 10%. Cc1ccc(-n2c(C)cc(C(=O)CN3CCC(C)CC3)c2C)cc1 was tested, and the inhibition was “inactive”. In the case of CCC1CCCCN1S(=O)(=O)c1ccc(C(=O)Nc2nnc(CSC)o2)cc1 (stereo unspecified), the inhibition is reported as “inactive”. O=C(NC(Nc1ccc([N+](=O)[O-])cc1)C(Cl)(Cl)Cl)c1cccs1 (stereo unspecified) was tested, and the inhibition was inconclusive: 12%. In the case of Cc1ccc(C(=O)Nc2nc(C)c(C)s2)o1, the inhibition is reported as inconclusive: 12%. With CN(C)c1nc2nonc2nc1NCC1(N2CCOCC2)CCCCC1 the inhibition was inconclusive: 10%. For COc1ccc(Nc2cc(C)nc(N3CCN(S(=O)(=O)c4ccc(-c5ccccc5)cc4)CC3)n2)cc1, the inhibition was inconclusive: 18%. For O[C@@H]1C[C@H]2CN(Cc3cnc(-c4cccc5ccccc45)nc3)C[C@H]2C[C@@H]1O, the inhibition was “inactive”. In the case of CCc1ccc(NC(=O)Cn2cnc3cc(C)c(C)cc32)cc1, the inhibition is reported as inconclusive: 11%. For CCOC(=O)N1CCN(C2CCCN(C(=O)C3=CCCC3)C2)CC1 (stereo unspecified), the inhibition was inconclusive: 16%. With CC1=C(C#N)C(c2ccccc2C(F)(F)F)C2=C(CC(C)(C)CC2=O)N1 (stereo unspecified) the inhibition was inconclusive: 15%. Cc1cnc(C(=O)N2CCCN(CC3CC3)C(C(C)C)C2)cn1 (stereo unspecified) was tested, and the inhibition was inconclusive: 17%. In the case of CCN1/C(=C/C(C)=O)Sc2ccc(OC)cc21, the inhibition is reported as inconclusive: 10%. For Cc1sc2nc3c(C(=O)NCc4cccc(Cl)c4)cccn3c(=O)c2c1C, the inhibition was “inactive”. O=S(=O)(c1cccc2cccc(Cl)c12)N1CCOC(C(F)(F)F)C1 (stereo unspecified) was tested, and the inhibition was “inactive”. For Cc1cc(C(=O)Nc2c(C)nn(Cc3ccccc3C)c2C)no1, the inhibition was “inactive”. In the case of CCCOc1ccc(-c2nc3s/c(=C\c4ccco4)c(=O)n3n2)cc1, the inhibition is reported as “inactive”. With CN(C)CCNC(=O)c1ccc2c(c1)N(Cc1c(F)cccc1Cl)C(=O)CS2 the inhibition was “inactive”. In the case of O=C(Cn1cnc2sc3c(c2c1=O)CCCC3)NCCC(=O)Nc1ccc2c(c1)OCO2, the inhibition is reported as “inactive”. In the case of O=C(CC(c1ccccc1)c1ccccc1F)N1CCCO1 (stereo unspecified), the inhibition is reported as “inactive”. With CC1=NOC(C(=O)NCCc2c[nH]c3c(C)cccc23)C1 (stereo unspecified) the inhibition was inconclusive: 14%. CC1(C)CC(=O)C2=C(C1)Nc1c(c(=O)[nH]c(=O)n1Cc1ccccc1)C2c1ccccc1 (stereo unspecified) was tested, and the inhibition was inconclusive: 15%. With CCc1c(C)sc(NC(=O)CCCn2nc([N+](=O)[O-])c(Br)c2C)c1C#N the inhibition was inconclusive: 14%. CC(C)N(CCCNC(=O)C1CCCN1c1nnc(N2CCCC2=O)s1)Cc1ccccc1 (stereo unspecified) was tested, and the inhibition was active: 34%. With CC(C)N(Cc1c[nH]c2ccccc12)C(=O)Nc1ccc(Cl)c(Cl)c1 the inhibition was inconclusive: 13%. For C=CCn1nc(C(=O)N2CCCCCC2)c2c1CCC(N1CCN(c3ccccc3)C(=O)C1)C2 (stereo unspecified), the inhibition was inconclusive: 20%. Cc1ccc(CN2C[C@H](O)C[C@H]2c2nc(-c3ccc(C)c(F)c3)no2)cc1 was tested, and the inhibition was “inactive”. In the case of Cc1ccc(NC(=O)c2cc3c(C)nn(-c4ccccc4)c3s2)cc1[N+](=O)[O-], the inhibition is reported as active: 36%. In the case of O=C(O)C1NC(c2cc(Br)ccc2O)C2C(=O)N(c3ccccc3)C(=O)C12 (stereo unspecified), the inhibition is reported as “inactive”. For Cc1ccccc1OCCCC(=O)NC1CCCC1, the inhibition was “inactive”. In the case of COc1ccccc1N1C(=O)S/C(=C\c2ccc(O)cc2)C1=O, the inhibition is reported as inconclusive: 11%. O=c1[nH]c2ccc(S(=O)(=O)N3CCN(c4ccccn4)CC3)cc2s1 was tested, and the inhibition was “inactive”. COc1ccc(OC)c(NC(=O)CN(c2ccccc2C)S(=O)(=O)c2ccc(C)cc2)c1 was tested, and the inhibition was “inactive”. With Cc1ccsc1CCNC(=O)c1cc2ccccn2n1 the inhibition was “inactive”. For COc1cc([N+](=O)[O-])ccc1NC(=O)c1ccc(F)cc1, the inhibition was inconclusive: 13%. For Cc1cc(C)c(-c2csc(NC(=O)c3cc(=O)c4ccccc4o3)n2)c(C)c1, the inhibition was inconclusive: 13%. For Cc1ccc(Oc2ncccc2CNC(=O)C(C)Cn2cncn2)cn1 (stereo unspecified), the inhibition was inconclusive: 19%. With Cc1ccc(Cl)cc1N=C1C(=O)Nc2ccccc21 the inhibition was “inactive”. CN(C)c1ccc(/C=C2\C(=O)Nc3ccccc32)cc1 was tested, and the inhibition was inconclusive: 24%. c1ccc(-n2cccc2CNC2CCCCC2)cc1 was tested, and the inhibition was inconclusive: 14%. CC1=NC2(CCN(C3CCN(C(=O)c4cccs4)CC3)CC2)C(=O)N1 was tested, and the inhibition was inconclusive: 12%. With N#Cc1c(-c2ccco2)nc(N2CCCCC2)[nH]c1=O the inhibition was inconclusive: 21%. CCN1CCN(C(=O)c2ccccc2NC(=O)c2ccc(Br)cc2)CC1 was tested, and the inhibition was “inactive”. In the case of Cc1ccc(Nc2cc(C)nc(Nc3ccc(NC(=O)C(C)(C)C)cc3)n2)cc1, the inhibition is reported as active: 33%. For CC(C)Cc1nc(CCc2cnn(C)c2)n(-c2ccc(F)cc2)n1, the inhibition was “inactive”. In the case of O=[N+]([O-])c1cccc2c1NC(c1cccc(Cl)c1Cl)C1CC=CC21 (stereo unspecified), the inhibition is reported as active: 39%. For CCC(=O)N1CCc2cc(Br)cc(S(=O)(=O)NCc3ccc4c(c3)OCO4)c21, the inhibition was inconclusive: 13%. With Cc1ccc(Nc2nc(-c3cccnc3)nc3ccccc23)cc1 the inhibition was inconclusive: 12%. Cc1c(Br)c([N+](=O)[O-])nn1CCCC(=O)Nc1sc2c(c1C#N)CCCC2 was tested, and the inhibition was inconclusive: 19%. COc1cccc(C=Nc2cccc(Cl)c2Cl)c1O was tested, and the inhibition was inconclusive: 10%. In the case of O=C(CCCc1ccccc1)NCC1CCCO1 (stereo unspecified), the inhibition is reported as “inactive”. In the case of FC(F)(F)c1ccnc(-c2cccc3cnccc23)n1, the inhibition is reported as inconclusive: 11%. For O=C(NCC1CCCO1)c1cc2cc(Br)ccc2oc1=O (stereo unspecified), the inhibition was “inactive”. In the case of CCN(c1ccccc1)S(=O)(=O)c1cc([N+](=O)[O-])ccc1N, the inhibition is reported as active: 32%. CCN(CC)C1CCN(C(=O)CCc2nnc(Cc3cc(OC)ccc3OC)o2)C1 (stereo unspecified) was tested, and the inhibition was “inactive”. For O=C(c1ccc(Cl)cc1)c1c[nH]c2c(F)cc(F)cc2c1=O, the inhibition was “inactive”. In the case of O=C(Cn1cnc2c(oc3ccccc32)c1=O)NCc1ccc(F)cc1, the inhibition is reported as inconclusive: 10%. In the case of O=C(O)c1ccccc1-c1ccccc1C(=O)NCc1cccnc1, the inhibition is reported as inconclusive: 11%. In the case of CC(=O)N[C@H]1C[C@@H](c2ccc3c(c2)nnn3C)O[C@@H](c2ccc(Cl)cc2)C1, the inhibition is reported as inconclusive: 14%. In the case of COc1ccc(-c2ccc(NC(C)=O)nc2)cc1Cl, the inhibition is reported as inconclusive: 11%. COc1ccccc1C1CN(CCNC(=O)c2ccc3c(c2)OCCO3)Cc2ccccc2O1 (stereo unspecified) was tested, and the inhibition was “inactive”. OC[C@H]1O[C@H](O)[C@@H](Cl)[C@H](O)[C@H]1O was tested, and the inhibition was inconclusive: 14%. With CN(Cc1ccccc1)Cc1cn(C[C@H]2O[C@@H](CC(=O)N(C)Cc3ccccc3)[C@H](O)[C@@H]2O)nn1 the inhibition was inconclusive: 17%. In the case of CCC(=O)N[C@@H]1c2ccccc2C2(CCN(Cc3cnc(-c4ccccc4C)nc3)CC2)[C@H]1OC, the inhibition is reported as inconclusive: 12%. In the case of Cn1c(=O)[nH]c(=O)c2c1nc(NCCCO)n2Cc1ccc(Cl)cc1, the inhibition is reported as inconclusive: 22%. For O=c1[nH]c(=O)c2[nH]cnc2[nH]1, the inhibition was inconclusive: 12%. For Fc1ccc(Nc2c(-c3ccco3)nc3ccccn23)cc1, the inhibition was inconclusive: 15%.

From PubChem BioAssay AID1259354 (Paczesny and Yang Labs, IUPUI and University of Michigan, 2018)
